# Test results reported in PubChem BioAssay AID504467 (National Center for Advancing Translational Sciences (NCATS), 2011).
# The campaign covered roughly 330,000 compounds. About 7,700 (2.3%) were called active. This list was built around the results that the source calls inconclusive (neither active nor inactive); the mix of calls is not that of the screen. Calls come from the whole dose curve; as a rule, active = well fitted inhibition curve with a large enough effect; inconclusive = small, poorly fitted or top-dose-only effect, or effect the other way; inactive = flat fitted curve, though single readings scatter. Potencies beside an inconclusive call are fits to weak or partial responses and may not hold up.
# Assay: qHTS screen for small molecules that inhibit ELG1-dependent DNA repair in human embryonic kidney (HEK293T) cells expressing luciferase-tagged ELG1; note: nearly all actives have a fitted effect of over 55% in size
# Conditions: HEK293T ELG1-luciferase reporter, luminescence, 16 h, DNA damage induced by 5-fluorouridine; activity change, negative = inhibition: at 46.1 µM (top of the series)
# In short: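 Reporter activity after DNA damage by 5-fluorouridine is monitored. Compound-treated cells incubate 16 hr at 37 °C, then ONE-Glo is added for 30 min before luminescence reading.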
# % is set by controls: 0 for no effect and ±100 for the full control effect; potency is the fitted concentration of half-maximal effect.
Compound,Potency,"activity change, negative = inhibition"
CCOc1ccccc1N1CC(C(=O)Nc2ccc(C(=O)O)cc2)CC1=O (centres undefined),"inconclusive: 20.6 µM [activator, single point]",
O=Nc1ccc(NOC(=O)c2ccccc2)cc1,,inactive: -17.8%
CCN1C(=O)c2ccc(-c3nc4ccccc4c(=O)o3)cc2C1=O,,inactive: 2.79%
Cc1nc(SCc2ccc(F)cc2)n[nH]1,"inconclusive: 29.1 µM [activator, single point]",
O=C(Cn1c(NCCCO)nc2ccccc21)c1ccc(Cl)cc1,,inactive: 8.11%
COc1ccc(C2CC(c3ccccc3)=NN2C(=O)COC(=O)/C=C/c2ccc(O)c(OC)c2)cc1 (centres undefined),"inconclusive: 29.1 µM [inhibitor, single point]",
COC(=O)/C(C#N)=C\c1c(OC)[nH]c2ccccc12,"inconclusive: 23.1 µM [inhibitor, single point]",
C=CCSc1n[nH]c2nc3c(c(=O)n12)C1(CCCC1)Cc1ccccc1-3,,inactive: -1.94%
CC(C)NCCCCOc1ccc(Br)cc1Cl,"inconclusive: 18.3 µM [activator, partial curve, poor fit]",
O=C(c1cccc(S(=O)(=O)N2CCOCC2)c1)N(CCc1ccccc1)Cc1ccccc1,"inconclusive: 18.3 µM [inhibitor, single point]",
Cc1nc2ccccc2n1CC(O)COC1CCCCC1 (centres undefined),"inconclusive: 29.1 µM [inhibitor, partial curve, poor fit]",
CN(CC(=O)Nc1cccc(F)c1)C(=O)c1cccc2ccccc12,,inactive: 5.88%
COc1ccc(C(CC(=O)c2ccc(C)cc2)C(C#N)C#N)cc1OC (centres undefined),"inconclusive: 29.1 µM [inhibitor, single point]",
CC(=N\Nc1ccc(Cl)cc1)/C(=N/O)C(=O)Nc1ccccc1,"inconclusive: 29.1 µM [activator, single point]",
S=c1nc(-c2ccccc2)n(CCN2CCOCC2)c2c1CCCC2,"inconclusive: 29.1 µM [activator, partial curve, poor fit]",
c1ccc(SCCN2CCc3ccccc3C2)cc1,"inconclusive: 16.4 µM [activator, single point]",
CCOC(=O)Nc1nnc(CCc2ccccc2)s1,,inactive: 0.359%
O=C1Cc2ccccc2Sc2ccccc21,,inactive: 2.25%
O=C(Nc1ccccc1O)c1cc(S(=O)(=O)N2CCOCC2)c(Cl)cc1Cl,"inconclusive: 23.1 µM [inhibitor, partial curve]",
COc1ccccc1N1CCN(/N=C/c2cccc(OC)c2O)CC1,"inconclusive: 23.1 µM [activator, partial curve, poor fit]",
CN1C(=CC=C2C=C(I)C(=O)C(I)=C2)C(C)(C)c2ccccc21,"inconclusive: 29.1 µM [inhibitor, single point]",
CC(C)CC(=O)OCc1cn(-c2ccccc2)nn1,"inconclusive: 23.1 µM [activator, single point]",
CC(C)(C)c1cc(-c2n[nH]c(=S)n2-c2ccc(Cl)cc2)n[nH]1,,inactive: 6.36%
CCCC[n+]1ccn(-c2nc3ccccc3nc2[N-]S(=O)(=O)c2ccc(Cl)cc2)c1,,inactive: 11.8%
O=C(Nc1cccc(F)c1)N(Cc1ccc(Cl)cc1)CC(O)C(F)(F)F (centres undefined),"inconclusive: 29.1 µM [inhibitor, single point]",

Compound,Potency,"activity change, negative = inhibition"
CC(=O)c1ccc(NC(=O)CN2C(=O)NC(C)(C3CCCCC3)C2=O)cc1 (centres undefined),,inactive: 18.2%
O=C(/C=C/c1ccccc1)c1c[nH]c2ccccc12,"inconclusive: 0.58 µM [activator, full curve]",
COc1ccc(/C=C(\NC(=O)c2cccs2)C(=O)NC(C)(C)C)cc1OC,,inactive: 6.16%
CN1CCN(C(=O)/C(=C/c2ccccc2)c2ccccc2)CC1,,inactive: 3.45%
CN(C)c1ccc(NC(=O)CSc2nnc(-c3ccco3)c(-c3ccco3)n2)cc1,"inconclusive: 18.3 µM [inhibitor, partial curve]",
O=C(Cc1cccs1)N/N=C/C(Cl)=C/c1ccccc1,"inconclusive: 5.17 µM [activator, full curve]",
O=C(CSc1nccc(=O)[nH]1)NC1CCCc2ccccc21 (centres undefined),"inconclusive: 0.0046 µM [inhibitor, full curve]",
CCOC(=O)N1CCN(C(=O)c2cc(-c3ccc(OCC)cc3)nc3ccccc23)CC1,"inconclusive: 32.6 µM [inhibitor, single point]",
CCOC(=O)N1CCC(NC(=O)CSCc2nc(-c3sccc3C)oc2C)CC1,"inconclusive: 18.4 µM [inhibitor, single point]",
CCOc1ccc(C(=O)Nc2ncccc2Cl)cc1,"inconclusive: 20.6 µM [activator, partial curve]",
Cc1cc(Cl)c(OCCCN(C)C)c(Br)c1,,inactive: -3.97%
O=C(Nc1nnc(-c2cccc(F)c2)s1)Nc1ccccc1F,"inconclusive: 5.17 µM [activator, partial curve]",
Cc1cc(C)nc(Sc2nc(C)nc3c2oc2ccccc23)n1,"inconclusive: 7.31 µM [inhibitor, partial curve, poor fit]",
COc1cc(/C=N/NC(=O)c2ccc(Cl)cc2)ccc1OCC(=O)N1CC(C)OC(C)C1 (centres undefined),"inconclusive: 16.4 µM [inhibitor, partial curve, poor fit]",
Nc1ccc2oc(-c3cccc4ccccc34)nc2c1,"inconclusive: 25.9 µM [activator, single point]",
Cc1ccc(NC(=O)Cn2cc(C(=O)C3CC3)c3ccccc32)c(C)c1,"inconclusive: 18.3 µM [activator, single point]",
O=C(CNC(=O)[C@@H]1Cc2ccccc2CN1)NCc1ccco1,"inconclusive: 23.1 µM [activator, partial curve, poor fit]",
CSc1ccc(OC2CCN(Cc3ccccc3)CC2)cc1,,inactive: -26.7%
COc1ccc(C2CC(c3cccs3)=NN2C(=O)CN2CCCCC2)cc1 (centres undefined),,inactive: 16%
CCN1CCN(CC(=O)Nc2c(C(=O)OC)[nH]c3cccc(Cl)c23)CC1,,inactive: 12.2%
Cc1ccc(/C(N)=N/OC(=O)CCC2CCCC2)cc1,"inconclusive: 20.6 µM [activator, single point]",
Clc1ccc(SCc2cn3cccnc3n2)cc1,"inconclusive: 20.6 µM [activator, partial curve]",
O=C(NNC(=O)C12CC3CC(CC(C3)C1)C2)c1cccc([N+](=O)[O-])c1,,inactive: 8.51%
COc1ccc(/C(N)=N/OC(=O)c2ccc3c(c2)OCO3)cc1OC,"inconclusive: 20.6 µM [activator, partial curve]",
O=C(CCNC(=O)N1CCn2c1nc1ccccc12)NCc1ccccc1Cl,"inconclusive: 13 µM [inhibitor, partial curve, poor fit]",

# Individual results from the entries so far:
# CCOC(=O)Nc1nnc(CCc2ccccc2)s1 | activity change, negative = inhibition: inactive: 0.359%
# Clc1ccc(SCc2cn3cccnc3n2)cc1 | Potency: inconclusive: 20.6 µM [activator, partial curve]
# Nc1ccc2oc(-c3cccc4ccccc34)nc2c1 | Potency: inconclusive: 25.9 µM [activator, single point]
# O=C(Nc1nnc(-c2cccc(F)c2)s1)Nc1ccccc1F | Potency: inconclusive: 5.17 µM [activator, partial curve]
# O=C(Cc1cccs1)N/N=C/C(Cl)=C/c1ccccc1 | Potency: inconclusive: 5.17 µM [activator, full curve]
# CCOC(=O)N1CCN(C(=O)c2cc(-c3ccc(OCC)cc3)nc3ccccc23)CC1 | Potency: inconclusive: 32.6 µM [inhibitor, single point]

# Next entries.

Compound,Potency,"activity change, negative = inhibition"
Cn1nnc2cc(C(=O)N3CCN(c4ccccn4)CC3)ccc21,,inactive: 9.02%
COc1ccc(C(=O)N2CCN(Cc3nc(CC4CC4)no3)CC2)cc1,,inactive: -2.32%
O=C1c2ccccc2NC(c2cnc3ccccc3n2)N1O (centres undefined),"inconclusive: 0.651 µM [activator, full curve]",
COCCn1c(C)cc(C(=O)COC(=O)C2CC(=O)N(CCc3ccc(OC)c(OC)c3)C2)c1C (centres undefined),"inconclusive: 9.2 µM [activator, single point]",
COc1ccc(-c2cc(C(F)(F)F)nc(SCCC(=O)N3CCCC3)n2)cc1,"inconclusive: 23.1 µM [inhibitor, single point]",
O=S(=O)(NCc1ccc(F)cc1)c1ccccc1Br,,inactive: 4.7%
CCCC(=O)Oc1c(S(=O)(=O)c2ccc(C)cc2)c(C)nn1C(C)(C)C,"inconclusive: 23.1 µM [inhibitor, single point]",
N#CC1=C(N)Oc2n[nH]c(-c3cccnc3)c2C1c1ccc([N+](=O)[O-])o1 (centres undefined),,inactive: 2.34%
Cc1cc(-c2nnc(CCC(=O)N3CCN(Cc4cccc(F)c4)CC3)o2)c(C)o1,,inactive: -11.2%
CCOC(=O)c1cc2c(nc1N)CC(C)(C)OC2,"inconclusive: 29.1 µM [activator, single point]",
COc1ccc(N2CC(O)=C(c3nc4ccccc4s3)C2=N)c(OC)c1,,inactive: -14.4%
COc1cc(CC(=O)OCC(=O)NCC(C)C)cc(OC)c1OC,,inactive: -0.814%
Cc1c(/C=N\NC(=O)C2COc3ccccc3O2)c2ccccc2n1C (centres undefined),,inactive: 1.04%
CCC(=O)Nc1ccc(SC#N)cc1C,,inactive: -19.9%
COc1ccc(NC(=O)c2cc(-c3cccs3)on2)cc1OC,"inconclusive: 20.6 µM [activator, single point]",
CCOC(=O)C1CCCN(C(=O)c2ccc(-c3ccc([N+](=O)[O-])cc3)o2)C1 (centres undefined),,inactive: -9.34%
CCc1ccc(OCCNC(=O)c2ccco2)cc1,"inconclusive: 23.1 µM [activator, single point]",
Cc1ccc(C)c(N2CCN(C(=O)C34CC5CC(C3)CC(n3nnc(C)n3)(C5)C4)CC2)c1,active: 20.6 µM,
O=C(Oc1ccc(-c2nnco2)cc1)N1CCOCC1,"inconclusive: 18.4 µM [activator, single point]",
CCOc1ccc(C(=O)Nc2ccc(NC(=O)c3cccs3)cc2)cc1[N+](=O)[O-],"inconclusive: 14.6 µM [activator, partial curve]",
Cc1nc(N2CCN(C(=O)c3ccco3)CC2)c2c3c(sc2n1)CC(C)CC3 (centres undefined),"inconclusive: 25.9 µM [inhibitor, single point]",
O=C(N/N=C1\CC2CC=CC12)c1ccccc1Cl (centres undefined),,inactive: -1.07%
Cc1onc(C(=O)Nc2ccc(OC(F)(F)F)cc2)c1[N+](=O)[O-],"inconclusive: 18.3 µM [activator, partial curve, poor fit]",
CC(=O)c1ccc(NC(=O)c2ccc3c(=O)n4c(nc3c2)CCCCC4)cc1,"inconclusive: 23.1 µM [inhibitor, partial curve, poor fit]",
